Source: the supplement of paper PMC6078165
Values are relative to the signal before dosing, not to a vehicle control; the signal also falls without drug.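 Fibroblast labels denote human fibroblasts, mainly primary ones from uterus (C12385, HUF), lung (H6013), bone (Hs27A), adrenal (HADF) and skin (WS1), plus mammary HMF and breast cancer-associated Hs343T. Cancer cells are basal-like or mesenchymal-like triple-negative breast cancer lines. A hit is a response shift exceeding 3x replicate standard deviation. The tissue of the other fibroblasts is not given here.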

System: BT20
Assay: relative JC-1 red fluorescence (viability) vs pre-drug, coculture with fibroblast (fraction); higher = more viable cancer cells
Experimental: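 JC-1 labelled TNBC cells cocultured 1:1 (1,500 cells each) with CellTrace Violet stained primary or stromal fibroblasts in 384-well plates in FluoroBrite medium, treated with one of 42 anticancer drugs at 0.1, 1, 10 or 100 uM. JC-1 red fluorescence (mitochondrial integrity in cancer cells only) was read by plate reader every 8 h for 72 h. Values are normalised to each well's pre-drug value. The stock of one drug was tenfold lower, so its dose labels may be too high.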

CO[C@H]1C[C@@H]2CC[C@@H](C)[C@@](O)(O2)C(=O)C(=O)N2CCCC[C@H]2C(=O)O[C@H]([C@H](C)C[C@@H]2CC[C@@H](O)[C@H](OC)C2)CC(=O)[C@H](C)/C=C(\C)[C@@H](O)[C@@H](OC)C(=O)[C@H](C)C[C@H](C)/C=C/C=C/C=C/1C [Rapamycin]
relative JC-1 red fluorescence
Conditions	8 h	16 h	24 h	32 h	40 h	48 h	56 h	64 h	72 h
0.1 µM, coculture fibroblast: C12385	0.9017	0.816	0.734	0.67	0.605	0.572	0.534	0.511	0.493
0.1 µM, coculture fibroblast: H6013	0.9149	0.866	0.8273	0.797	0.76	0.743	0.748	0.733	0.722
0.1 µM, coculture fibroblast: H6019	0.843	0.774	0.746	0.694	0.657	0.645	0.623	0.615	0.605
0.1 µM, coculture fibroblast: H6076	0.9871	0.89795	0.8284	0.7957	0.7697	0.7397	0.7361	0.728	0.712
0.1 µM, coculture fibroblast: H6231	0.784	0.948	0.84	0.7749	0.7171	0.6623	0.6331	0.601	0.569
0.1 µM, coculture fibroblast: HADF	0.894	0.9001	0.86031	0.8382	0.8157	0.77	0.7584	0.7486	0.722
0.1 µM, coculture fibroblast: HCFa	0.9188	0.882	0.869	0.823	0.803	0.788	0.78	0.766	0.745
0.1 µM, coculture fibroblast: HCPF	0.855	0.916	0.842	0.7708	0.722	0.676	0.639	0.626	0.601
0.1 µM, coculture fibroblast: HHSteC	0.9375	0.874	0.854	0.787	0.747	0.732	0.727	0.72	0.705
0.1 µM, coculture fibroblast: HMF	0.899	0.933	0.843	0.794	0.756	0.718	0.678	0.657	0.632
0.1 µM, coculture fibroblast: HPFa	0.9385	0.8307	0.8169	0.7461	0.7171	0.677	0.657	0.634	0.598
0.1 µM, coculture fibroblast: HUF	0.9	0.812	0.778	0.699	0.656	0.625	0.604	0.587	0.566
0.1 µM, coculture fibroblast: Hs5	0.925	0.93	0.854	0.79	0.744	0.712	0.686	0.65	0.622
0.1 µM, coculture fibroblast: Hs27A	0.717	0.925	0.901	0.792	0.778	0.884	0.878	0.862	0.828
0.1 µM, coculture fibroblast: Hs343T	0.963	0.881	0.802	0.76	0.729	0.686	0.664	0.655	0.642
0.1 µM, coculture fibroblast: WS1	0.841	0.767	0.712	0.647	0.589	0.558	0.523	0.5	0.494
1 µM, coculture fibroblast: C12385	0.869	0.8214	0.7765	0.723	0.672	0.641	0.62	0.606	0.597
1 µM, coculture fibroblast: H6013	0.856	0.918	0.839	0.811	0.768	0.847	0.755	0.834	0.8118
1 µM, coculture fibroblast: H6019	0.847	0.809	0.785	0.731	0.689	0.679	0.655	0.642	0.639
1 µM, coculture fibroblast: H6076	0.892	0.928	0.849	0.831	0.798	0.77584	0.758	0.758	0.746
1 µM, coculture fibroblast: H6231	0.816	0.92	0.872	0.8205	0.774	0.733	0.695	0.673	0.662
1 µM, coculture fibroblast: HADF	0.8164	0.961	0.913	0.896	0.895	0.862	0.858	0.855	0.844
1 µM, coculture fibroblast: HCFa	0.9354	0.909	0.9	0.863	0.834	0.81	0.792	0.782	0.758
1 µM, coculture fibroblast: HCPF	0.797	0.954	0.872	0.81	0.771	0.719	0.681	0.664	0.641
1 µM, coculture fibroblast: HHSteC	0.941	0.925	0.91	0.861	0.825	0.799	0.78	0.763	0.743
1 µM, coculture fibroblast: HMF	0.909	0.916	0.827	0.774	0.749	0.703	0.69	0.663	0.644
1 µM, coculture fibroblast: HPFa	0.932	0.92	0.926	0.874	0.85	0.815	0.798	0.783	0.756
1 µM, coculture fibroblast: HUF	0.859	0.818	0.812	0.743	0.701	0.673	0.658	0.649	0.634
1 µM, coculture fibroblast: Hs5	0.783	0.98	0.8902	0.8273	0.7763	0.725	0.687	0.659	0.635
1 µM, coculture fibroblast: Hs27A	0.9226	0.839	0.928	0.942	0.909	0.896	0.882	0.865	0.832
1 µM, coculture fibroblast: Hs343T	0.95	0.908	0.829	0.777	0.738	0.707	0.678	0.668	0.645
1 µM, coculture fibroblast: WS1	0.877	0.836	0.791	0.73	0.688	0.656	0.63	0.605	0.6
